The list shows a part of the results.
tested on: T1, CTL2-GFP (C. trachomatis L2/434/Bu, GFP-expressing); design: species or system HeLa; Intracellular C. trachomatis growth in HeLa cells, bulk GFP fluorescence relative to DMSO; details: bulk GFP, single well; 28.5 h, 10 µM; inhibitor
T1 construct: L2/434/Bu, GFP-expressing

SMILES	% of control remaining [%]
CN(C)CC1CCCN(C(=O)[C@@H]2C[C@@H]3C=C[C@H]2C3)C1 (stereo partly shown) [CBK282063]	165.827
CC(C)N(C(=O)Cn1c(-c2ccco2)cc2cccnc21)C(C)C [CBK282682]	86.8165
O=C(CN1CCC(Cc2ccccc2)CC1)Nc1ccc(S(=O)(=O)N2CCOCC2)cc1 [CBK268451]	105.098
Cc1cc(=O)n2ncn(CC(=O)NCCOc3ccccc3)c2c1 [CBK305823]	98.0726
Cc1nn2c(O)c3c(nc2c1-c1cccs1)CCC3 [CBK283729]	115.97
O=C(O)CCCN1C(=O)/C(=C/c2c[nH]c3ccccc23)SC1=S [CBK262580]	104.747
CNC(=O)C1(Cc2cccc(-c3cccs3)c2)CCN(C(=O)Cc2ccccc2)CC1 [CBK285745]	123.063
O=C(Nc1cccc(CCc2nc3ccccc3[nH]2)c1)c1ccc(Cn2cncn2)cc1 [CBK285648]	93.5801
CC(C)[C@H](CO)Nc1nccnc1-c1cccc(O)c1 [CBK037542]	110.321
CC(C)[C@H](NS(=O)(=O)c1ccc(Cl)cc1)C(=O)NCc1ccc(Cn2cccn2)cc1 [CBK295611]	128.203
O=C(NC(=S)Nc1cccc(-c2nc3ccccc3s2)c1)c1cc([N+](=O)[O-])ccc1N1CCOCC1 [CBK268789]	118.861
COc1ccc(-c2cnc(NCC3CC3)c(C(=O)NCc3ccco3)c2)cc1 [CBK076283]	71.5657
CC1Cc2cc(C(O)(CCN(C)C)c3ccccc3)ccc2O1 (stereo not shown) [CBK011764]	113.061
O=C(NCC1(O)CCSCC1)c1ccc2ccccc2n1 [CBK305211]	137.218
Cc1cccc(Nc2ncc(Cc3ccccc3C)s2)n1 [CBK287849]	126.739
CNC(=O)[C@@H]1CN(Cc2ccccc2)C[C@H]1C(=O)c1ccc(F)cc1 [CBK282902]	131.997
Cc1ccc(-c2c(C(=O)NNC(=S)NCc3ccco3)csc2C)cc1 [CBK266992]	112.56
NC(=O)c1c(NC(=O)NCc2cccnc2)sc2c1CCC2 [CBK307578]	168.115
CC(C)=NNC(=O)Nc1nonc1N [CBK027368]	96.7257
O=C(NC[C@H]1O[C@@H](CC(=O)N2CCCC2)[C@H](O)[C@@H]1O)c1ccccc1 [CBK288907]	102.608

A second format for three compounds above.

| SMILES | % of control remaining [%] |
| --- | --- |
| CC1Cc2cc(C(O)(CCN(C)C)c3ccccc3)ccc2O1 (stereo not shown) [CBK011764] | 113.061 |
| O=C(NCC1(O)CCSCC1)c1ccc2ccccc2n1 [CBK305211] | 137.218 |
| Cc1cccc(Nc2ncc(Cc3ccccc3C)s2)n1 [CBK287849] | 126.739 |

Continued.

SMILES	% of control remaining [%]
OCCOc1ccccc1OCCO [CBK260930]	106.981
CC(C)(C)OC(=O)N1CCN(c2ccccc2O)CC1 [CBK003878]	119.168
c1ccc(CCCN2CCN(Cc3ccccc3)CC2)cc1 [CBK261878]	100
Cc1cc(C)c(NC(=O)CSc2ncccc2-c2nc(C)no2)c(C)c1 [CBK287821]	115.908
CCCSc1nnc(NC(=O)c2nc(SC)ncc2Cl)s1 [CBK268759]	115.469
O=C(c1ccco1)N1CCN(c2cc(-c3cccc4cccnc34)ncn2)CC1 [CBK091117]	182.204
CCOC(=O)CNC(=O)c1cc(Br)c(OC)c(OC)c1 [CBK058454]	98.3031
Cc1ccc([N+](=O)[O-])cc1NC1OCC(O)C(O)C1O (stereo not shown) [CBK262026]	100
CCC1c2ccc(C)n2CCN1C(=O)c1cc(-c2ccccn2)n[nH]1 (stereo not shown) [CBK283225]	123.761
CCCC/C=C/c1cncc(NCCc2c[nH]c3ccccc23)n1 [CBK066081]	143.522
CN1CCN(C(=O)CN(c2ccccc2)S(=O)(=O)N(C)C)CC1 [CBK268079]	118.643
CCC(CC)C(=O)N1C[C@H]2CCc3cn(CCNC(C)=O)nc3[C@H]2C1 [CBK282183]	119.133
COc1cc(CN2CCOC3(CCN(C(=O)OCc4ccccc4)CC3)C2)cc(OC)c1OC [CBK161104T]	121.538
CCc1ccc(-c2ccc(C(=O)OC)cn2)cc1 [CBK149232]	193.478
Cc1ccc2c(Cl)c(-c3nnc(-c4ccc(Cl)cc4)o3)sc2c1 [CBK263682]	100
Nc1ncnc2c1nc1n2[C@H]2C[C@@H](O)[C@@H](C1)O2 [CBK201254]	94.3031
O=C(O)CCCOc1nc(C2CC2)cc(C(F)(F)F)n1 [CBK286886]	124.071
COCCNc1cc(-c2ccccc2N(C)C)ncn1 [CBK090790]	159.919
CC(O)CNCc1ccccc1OCc1ccccc1F (stereo not shown) [CBK270278C]	121.186
COc1ccc(C2CC(=O)c3c(C)n[nH]c3C2)cc1 (stereo not shown) [CBK287911]	78.5091

— publication PMC12040169 (PLOS Biology, 2025)
